Assay: Redox flow battery cycling and power performance

CC1(C)CC([N+](C)(C)C2CC(C)(C)N([O])C(C)(C)C2)CC(C)(C)N1[O] [i-TEMPOD-1]
capacity decay (2 M (4 M electron concentration), AMVN membrane, after over 100 days of cycling): no capacity decay | capacity retention in RFB cycling (DSVN membrane, high concentration, after 24 days of continuous cycling): remarkable capacity retention | high-frequency resistance as share of the DC resistance (high concentration flow battery, 50% state-of-charge): 97%

Reference: patent US12525646B2, “Ionic cyclic nitroxyl radical oligomers” (Wisconsin Alumni Research Foundation, priority 2021, dated 2026)
